The assay is described as follows: qHTS Assay for Lipid Storage Modulators in Drosophila S3 Cells.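 As to cell number change: cells counted by Cell Tracker Red CMTPX staining in the red channel.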 The conditions noted are these: BODIPY lipid droplet fluorescence, 18-24 h; for cell number change: measured here: cell count max response, cells fed with added oleic acid. An outline of the steps:
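Drosophila S3 cells loaded with oleic acid (400 uM, as added) and compounds at several concentrations; lipid droplets imaged by 488-nm laser-scanning cytometry, 500–530 nm intensity and object ratio to cell channel. Percent activity normalized to 20 uM Triacsin C.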

[1] abbreviates: measured here: lipid fluorescence (Fed channel) AC50, cells fed with added oleic acid.
Setting [2] is: measured here: cell number channel AC50, cells fed with added oleic acid.

The structures appear in SMILES notation. Some of the results follow. Shown are side measurements of this screen, not its main read-out; they come without a call. Most of these compounds were active or inconclusive in the main read-out, so they are no random draw. The note in brackets gives the kind of curve behind each potency; many fits are weak.

The AC50 is the concentration at which the activity in the assay is half-maximal. A higher AC50 goes with weaker potency.

`Cc1ccc(C)c2[nH]c(=O)c(C(c3nnnn3C(C)(C)C)N3CC=C(c4ccc(F)cc4)CC3)cc12` (centres undefined): the cell number change amounted to 28%. Moreover, the AC50 under setting [1] was 20.6 µM [rising, single point].

For `OC1(c2ccc(F)cc2)CN(c2ccccc2)C2=[N+]1CCS2` (centres undefined), the cell number change is -24%. Further, the AC50 under setting [1] is 29.1 µM [falling, single point].

As for `Cn1cnc([N+](=O)[O-])c1NC(C)(C)C`, the AC50 is 0.82 µM [falling, full curve, poor fit] under setting [2] and 5.8 µM [rising, full curve, poor fit] under setting [1].

Consider `CCOc1c(Cl)cc(CNCc2ccncc2)cc1OC`, for which the cell number change came out at 16.3%.

With `Cc1nc2nc(C)c(NS(=O)(=O)c3ccc(Cl)cc3)c(=O)n2[nH]1`, the cell number change is -19%.

On to `CCOc1ccc(S(=O)(=O)N2CCC(C(=O)N3CCCC3)CC2)cc1C`, for which the cell number change is -4.2%. Under setting [1], the AC50 is 29.1 µM [rising, single point].

For `CC(=O)Nc1ccc(S(=O)(=O)N2CCN=C2c2ccccc2)cc1`, the cell number change is -12.4%. Further, the AC50 under setting [1] was 1.46 µM [falling, full curve].

For `CCCC(=O)c1c(NC(C)C)cc(C)oc1=O`, the cell number change is -1.33%. Also, the AC50 under setting [1] was 29.1 µM [falling, single point].

As for `COC(=O)/C=C/C(=O)N1CCN(c2cccc(Cl)c2)CC1`, the cell number change is -15.1%.

For the compound `CCOC(=O)C1CCN(C(=O)CN2C(=O)c3ccccc3Sc3ncccc32)CC1`, the cell number change came out at 2.14%.

In the case of `O=C(Nc1cccnc1)c1cc(S(=O)(=O)N2CCCCC2)c(Cl)cc1Cl`, the cell number change was -20%. For the same compound, the AC50 under setting [1] is 0.206 µM [rising, single point].

With `C=C1c2c(Cl)ccc(O)c2C(O)=C2C(=O)[C@]3(O)C(O)=C(C(N)=O)C(=O)[C@@H](N(C)C)[C@@H]3[C@@H](O)C12` (some centres undefined), the cell number change was 1.04%. Under setting [1], the AC50 is 0.517 µM [falling, single point].

On to `Cn1c(SCC(=O)NCc2ccccc2)nnc1C1CC1`, for which the cell number change is -0.408%. Also, the AC50 under setting [1] is 6.51 µM [falling, single point].

For `COc1cccc(CN(C)C(=O)c2cc(S(=O)(=O)N3CCN(c4ccccc4)CC3)ccc2Cl)c1`, the AC50 under setting [1] was 7.31 µM [falling, single point].

Regarding `CC(C)Oc1ccc(CC2CC(=O)NC2=O)cc1` (centres undefined), the cell number change was -12.9%. Moreover, the AC50 under setting [1] was 29.1 µM [falling, partial curve].

In the case of `c1ccc2c(N3CCCCCC3)nc(-c3ccncc3)nc2c1`, the cell number change was -20.9%. Under setting [2], the AC50 is 1.3 µM [rising, partial curve]. Besides, under setting [1], the AC50 was 2.06 µM [rising, partial curve].

As to `CN(C)S(=O)(=O)c1cc(C(=O)NCc2ccccc2)c(Cl)cc1Cl`, the cell number change came to 107%. Besides, under setting [2], the concentration at half-maximal activity (AC50) was 4.11 µM [falling, single point]. The AC50 under setting [1] was 3.26 µM [falling, single point].

As to `Cc1cc(=O)[nH]c2ccc(S(=O)(=O)Nc3ccccc3)cc12`, under setting [1], the AC50 is 29.1 µM [rising, single point].

As for `Cc1onc(-c2ccccc2)c1C(=O)OCC(=O)Nc1ccc(Cl)cc1`, the cell number change was -8.53%. Also, the AC50 under setting [1] is 6.51 µM [rising, single point].

Take `COc1cccc(NC(=O)Cn2c(=O)n(CCC(=O)NCc3ccco3)c(=O)c3ccccc32)c1`: the cell number change is -31.1%. In addition, under setting [2], the half-maximal activity concentration (AC50) was 29.1 µM [falling, single point].

Consider `COc1ccc(NC(=O)CCCc2nnc3n(C)c(=O)c4sccc4n23)cc1`, for which the cell number change is 13.8%. For the same compound, under setting [1], the AC50 is 2.59 µM [falling, full curve].

In the case of `O=S(=O)(c1cccc2cccnc12)N1CCCCC1`, the cell number change was -2.35%. Besides, the AC50 under setting [1] was 20.6 µM [rising, single point].

In the case of `Cc1cc(C)nc(SCC(=O)N2CCOCC2)n1`, the cell number change amounted to 30%. Moreover, the AC50 under setting [1] was 6.51 µM [falling, single point].

As for `O=C(c1cc2ccccc2o1)N1CCCC1`, the cell number change was 16.8%. For the same compound, under setting [1], the AC50 is 14.6 µM [rising, partial curve, poor fit].

Regarding `O=C(COc1coc(CN2CCc3ccccc3C2)cc1=O)Nc1ccccc1F`, the cell number change is -50%. Also, the AC50 under setting [2] was 8.2 µM [falling, partial curve, poor fit]. In addition, the AC50 under setting [1] is 0.116 µM [rising, full curve, poor fit].

With `CCOc1ccc(/C=C2\SC(=S)N(Nc3ccccc3)C2=O)cc1OC`, the cell number change was 9.81%. Further, under setting [1], the AC50 was 29.1 µM [rising, single point].

With `O=C(CCn1cccc1)N1CCc2ccccc21`, the cell number change stood at 25.7%. For the same compound, under setting [2], the AC50 was 5.8 µM [falling, partial curve]. Besides, under setting [1], the AC50 is 29.1 µM [falling, single point].

As to `CCN1C(=O)[C@H]2[C@@H](c3ccc(-c4ccccc4)cc3)N[C@@](C)(C(=O)OC)[C@H]2C1=O`, the cell number change was -1.52%. For the same compound, the half-maximal activity concentration (AC50) under setting [1] is 29.1 µM [falling, single point].

Take `COc1ccc(NC(=O)CSc2nc3c(c(=O)n(C)c(=O)n3C)n2C)c(OC)c1`: the cell number change is 8.7%.

For `Cn1sc(NC(=O)c2cccc(Cl)c2)nc1=O`, the cell number change was found to be 33.1%.

Consider `CCOC(=O)c1ccc(NC(=O)N2CC(C)OC(C)C2)cc1` (centres undefined), for which the cell number change is -5.43%. Further, the AC50 under setting [1] is 0.146 µM [rising, single point].

Consider `O=C(CSc1nc2nn(-c3ccccc3)c(=O)c-2c2n1CCCCC2)NCCc1ccccc1`, for which, under setting [1], the concentration at half-maximal activity (AC50) was 5.8 µM [rising, partial curve, poor fit].

`O=S(=O)(NC1CCN(S(=O)(=O)c2ccc3c(c2)OCCO3)CC1)c1c(F)cccc1F`: the cell number change was found to be 26.6%. Also, under setting [1], the AC50 is 7.31 µM [rising, partial curve].

As to `CC(C)c1nnc(NC(=O)CCC(=O)Nc2ccc(F)cc2)s1`, the cell number change came out at 11.8%. Further, under setting [1], the AC50 is 25.9 µM [falling, partial curve, poor fit].

Take `O=C1NC(=S)N/C1=C/c1cccc([N+](=O)[O-])c1`: the AC50 is, setting by setting: under setting [2], 2.59 µM [rising, single point]; under setting [1], 5.17 µM [rising, single point].

On to `O=C(NCc1cc([N+](=O)[O-])ccc1O)c1cccnc1Sc1ccccc1`, for which the cell number change worked out at 13.5%.

Turning to `CC1=C(C(=O)N2CCOCC2)C(c2c(F)cccc2F)NC(=O)N1` (centres undefined), the cell number change was -43.1%.

Regarding `CN1CC(=O)N(CCOc2ccccc2)C1=O`, the cell number change is -25.4%. Moreover, the AC50 under setting [2] was 3.66 µM [falling, full curve, poor fit]. Further, the AC50 under setting [1] is 29.1 µM [falling, single point].

As for `Cc1ccc(C(=O)Nc2ccc(F)cc2F)o1`, the cell number change amounted to 59.6%. Moreover, under setting [2], the AC50 was 20.6 µM [rising, single point].

Take `Cc1cc2c(cc1C)-c1nnc(-c3ccc4ccccc4n3)n1C(C)(C)C2`: the cell number change came out at 57.5%. The AC50 under setting [2] was 25.9 µM [rising, single point]. Besides, under setting [1], the AC50 was 20.6 µM [rising, partial curve].

Take `CS(=O)c1ccccc1-c1nc(-c2ccc(Cl)cc2)no1` (centres undefined): the cell number change was found to be 22.4%.

For the compound `COC(=O)c1ccc(CSc2nc3scc(-c4cccs4)c3c(=O)[nH]2)o1`, the cell number change was -20.6%.

Consider `CN(C)C(=S)NC(=O)c1cccc(Cl)c1`, for which the cell number change worked out at 38.4%. The AC50 under setting [2] is 4.61 µM [rising, full curve, poor fit]. Further, the AC50 under setting [1] was 6.51 µM [rising, single point].

Regarding `COc1ccccc1CNC(=O)C(C)n1nc(C)c2c(C)n(-c3ccccc3)nc2c1=O` (centres undefined), under setting [1], the AC50 is 6.51 µM [falling, partial curve].

As to `O=C(/C(=C/c1cccnc1)n1ccnc1)c1ccc(Cl)cc1Cl`, the cell number change is -38.5%. Further, the AC50 under setting [2] is 5.17 µM [falling, partial curve, poor fit].

Regarding `Cc1occc1C(=O)NCc1ccco1`, the AC50 was 1.84 µM [rising, single point] under setting [2] and 29.1 µM [falling, single point] under setting [1].

In the case of `COc1ccccc1-c1oc2ccccc2c1C#CCCO`, the cell number change is -39.4%. Also, the AC50 under setting [2] was 4.11 µM [falling, single point].

For `N#Cc1ccccc1OCC(=O)NNC(=O)c1ccncc1`, the cell number change was found to be 17.9%. The AC50 under setting [1] was 32.6 µM [rising, single point].

As for `C=CCn1c(=NC(=O)c2cc(Cl)sc2Cl)sc2cc(S(N)(=O)=O)ccc21`, the cell number change is -19.3%. For the same compound, under setting [1], the AC50 is 5.17 µM [falling, single point].

As to `Cc1c(C)c2c(OCC(=O)NCc3cccnc3)cc3c(c2oc1=O)CCC(C)(C)O3`, the cell number change worked out at 40.8%. Further, under setting [2], the AC50 is 7.31 µM [rising, partial curve, poor fit].

As to `O=C(NCc1ccc2c(c1)OCO2)C1CCN(S(=O)(=O)c2cccs2)CC1`, the cell number change is -18.5%. Further, the AC50 under setting [1] was 18.4 µM [falling, single point].

As to `Cc1ccc(-n2ncc3c(=O)n(CC(=O)N4CCN(c5ccccc5)CC4)cnc32)cc1`, the cell number change was found to be 15.1%. In addition, under setting [2], the AC50 was 0.082 µM [rising, partial curve, poor fit]. Moreover, the AC50 under setting [1] was 0.326 µM [rising, full curve, poor fit].

On to `CCC(C)(C)c1nnc(NC(=O)C2CCN(C(=O)c3ccco3)CC2)s1`, for which the cell number change was -5.13%.

For the compound `CC(C)(C)c1ccc(-c2noc(CCC(=O)Nc3cccnc3)n2)cc1`, the cell number change was -21%. For the same compound, under setting [2], the AC50 is 0.00411 µM [falling, full curve, poor fit].

For the compound `CCOC(=O)COc1coc(CN2CCN(c3ccc(F)cc3)CC2)cc1=O`, the cell number change was -5.38%. The AC50 under setting [1] is 6.51 µM [rising, single point].

For the compound `Clc1cccc(-c2cc3nc4c(c(N5CCOCC5)n3n2)CCCC4)c1`, the cell number change came out at 4.28%. The AC50 under setting [1] is 0.58 µM [rising, full curve].

Take `CCOC(=O)C1=C(C)N(c2ccc(OC)cc2)C(=O)/C1=C\c1cccs1`: the cell number change was 3.93%. The AC50 under setting [1] is 2.59 µM [rising, single point].

Regarding `COc1cccc(CNC(=O)CCNS(=O)(=O)c2cccc3nsnc23)c1`, the cell number change was found to be 37.3%. Further, the AC50 under setting [2] is 1.03 µM [rising, full curve, poor fit]. Under setting [1], the AC50 was 0.206 µM [rising, full curve, poor fit].

For `CC1CN(S(=O)(=O)c2ccc(Cl)c(S(=O)(=O)N3CC(C)OC(C)C3)c2)CC(C)O1` (centres undefined), the cell number change was determined as 0.942%. Further, under setting [1], the AC50 is 32.6 µM [falling, single point].

As to `CC(=O)Nc1ccc(SCC(=O)N(CCC#N)c2ccc(C)cc2)cc1`, the cell number change was -18.7%. Further, the AC50 under setting [1] was 0.00461 µM [falling, full curve, poor fit].
